According to the supplement of paper PMC4635364:
Counter-ions that a name gives are not always drawn. The list shows a part of the results. Single values are uncertain here, since repeats match poorly.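 Human fetal ventral-midbrain neural progenitor line ReNCell VM, differentiated without mitogens. Images stained for doublecortin (early neurons) or tyrosine hydroxylase (dopaminergic neurons) were scored by blinded raters against untreated wells (0 = no change). Repeats and both raters were averaged, and compounds averaging 2 or higher were picked as hits for retesting.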

Key:
ReNCell VM [1] = experiment: neuronal differentiation score (DCX+ cell fraction vs untreated, manual image score) (score (-3 to 3)); higher = more neuronal differentiation; conditions: 2 uM, 2 weeks
ReNCell VM [2] = experiment: dopaminergic neuron differentiation score (TH+ cell fraction vs untreated, manual image score) (score (0 to 3)); higher = more TH+ dopaminergic neuron differentiation; conditions: 2 uM, 4 weeks, BDNF 10 ng/ml + GDNF 10 ng/ml

For O=C1OC(OC(=O)c2cccnc2Nc2cccc(C(F)(F)F)c2)c2ccccc21 (stereo unspecified) [Talniflumate], which neuronal differentiation score (ReNCell VM [1]; library: Tocriscreen) is on record?
The neuronal differentiation score was inactive: 0.

And the “dopaminergic neuron differentiation score” value (ReNCell VM [2]; library: Tocriscreen)?
The value was inactive: 0.

What does the source list for COc1ccccc1NC(=O)Nc1nc(-c2cccnc2)nc2ccccc12?
neuronal differentiation score (ReNCell VM [1]; library: LOPAC): inactive: 0; dopaminergic neuron differentiation score (ReNCell VM [2]; library: LOPAC): inactive: 0

Which results are given for Cc1cccc(N(C)C(=S)Oc2ccc3ccccc3c2)c1 [Tolnaftate]?
neuronal differentiation score (ReNCell VM [1]; library: Prestwick): inactive: 0; dopaminergic neuron differentiation score (ReNCell VM [2]; library: Prestwick): inactive: 0

What does the source list for Cc1cc(C)cc(OCC2CNC(=O)O2)c1 (stereo unspecified)?
neuronal differentiation score (ReNCell VM [1]; library: Spectrum): inactive: 0; dopaminergic neuron differentiation score (ReNCell VM [2]; library: Spectrum): inactive: 1

Which neuronal differentiation score (ReNCell VM [1]; library: Spectrum) does the source give for O=C(Nc1ccc(C(=O)O)c(O)c1)c1ccccc1 here?
The neuronal differentiation score was inactive: 0.

What about the “dopaminergic neuron differentiation score” value (ReNCell VM [2]; library: Spectrum) of the same compound?
Its value is inactive: 0.

Which results are given for c1coc(CNc2ncnc3[nH]cnc23)c1?
neuronal differentiation score (ReNCell VM [1]; library: Spectrum): inactive: 0; dopaminergic neuron differentiation score (ReNCell VM [2]; library: Spectrum): inactive: 0

For CC(=O)Nc1ccc(S(=O)(=O)c2ccc(NC(C)=O)cc2)cc1, which neuronal differentiation score (ReNCell VM [1]; library: Spectrum) is on record?
The neuronal differentiation score was inactive: 0.

And the “dopaminergic neuron differentiation score” value (ReNCell VM [2]; library: Spectrum)?
The value was inactive: 0.

What does the source list for CCCc1nc(C)c2c(=O)nc(-c3cc(S(=O)(=O)N4CCN(CC)CC4)ccc3OCC)[nH]n12 [Vardenafil]?
neuronal differentiation score (ReNCell VM [1]; library: Prestwick): inactive: 0; dopaminergic neuron differentiation score (ReNCell VM [2]; library: Prestwick): inactive: 0

What does the source list for CCOC(=O)Nc1nc2ccccc2[nH]1?
neuronal differentiation score (ReNCell VM [1]; library: Spectrum): inactive: 0; dopaminergic neuron differentiation score (ReNCell VM [2]; library: Spectrum): inactive: 0

CC(=O)c1cc2ccccc2oc1=O [3-Acetylcoumarin] was tested. Which neuronal differentiation score (ReNCell VM [1]; library: Phytochemical) did it give?
The neuronal differentiation score was inactive: 0.

What about the “dopaminergic neuron differentiation score” value (ReNCell VM [2]; library: Phytochemical) of the same compound?
Its value is inactive: 0.

How did the neuronal differentiation score (ReNCell VM [1]; library: Spectrum) turn out when O=C1CCc2cc(OCCCCc3nnnn3C3CCCCC3)ccc2N1 was run?
The neuronal differentiation score was inactive: 0.

What about the “dopaminergic neuron differentiation score” value (ReNCell VM [2]; library: Spectrum) of the same compound?
Its value is inactive: 0.

Which neuronal differentiation score (ReNCell VM [1]; library: Spectrum) does the source give for O.O.O.O.O=C([O-])CC(O)(CC(=O)[O-])C(=O)[O-].[Li+].[Li+].[Li+] here?
The neuronal differentiation score was inactive: 0.

And the “dopaminergic neuron differentiation score” value (ReNCell VM [2]; library: Spectrum)?
The value was inactive: 1.

How did the neuronal differentiation score (ReNCell VM [1]; library: Prestwick) turn out when Clc1ccc(C(c2ccccc2Cl)C(Cl)Cl)cc1 (stereo unspecified) [Mitotane] was run?
The neuronal differentiation score was inactive: 0.

And the “dopaminergic neuron differentiation score” value (ReNCell VM [2]; library: Prestwick)?
The value was inactive: 0.

With O=C(O)C1=C(CSc2nnnn2CS(=O)(=O)O)CS[C@@H]2[C@H](NC(=O)[C@H](O)c3ccccc3)C(=O)N12 as the compound, how does the neuronal differentiation score (ReNCell VM [1]; library: Spectrum) read?
The neuronal differentiation score was inactive: 0.

What about the “dopaminergic neuron differentiation score” value (ReNCell VM [2]; library: Spectrum) of the same compound?
Its value is inactive: 0.

Which neuronal differentiation score (ReNCell VM [1]; library: Tocriscreen) does the source give for NCCNC(=O)c1ccc(Cl)cn1 [Lazabemide hydrochloride] here?
Its neuronal differentiation score is inactive: 0.

What about the “dopaminergic neuron differentiation score” value (ReNCell VM [2]; library: Tocriscreen) of the same compound?
The value was inactive: 0.

For COc1ccc2c(c1)c(CC(=O)N1CCOCC1)c(C)n2C(=O)c1ccc(Cl)cc1, which neuronal differentiation score (ReNCell VM [1]; library: Tocriscreen) is on record?
Its neuronal differentiation score is inactive: 0.

What about the “dopaminergic neuron differentiation score” value (ReNCell VM [2]; library: Tocriscreen) of the same compound?
Its value is inactive: 0.

Which neuronal differentiation score (ReNCell VM [1]; library: Spectrum) does the source give for OC[C@H]1O[C@@H](Oc2ccc(O)cc2)[C@H](O)[C@@H](O)[C@@H]1O here?
Its neuronal differentiation score is inactive: 0.

And the “dopaminergic neuron differentiation score” value (ReNCell VM [2]; library: Spectrum)?
The value was inactive: 0.

For c1ccc(CC2=NCCN2)cc1 [Tolazoline hydrochloride], which neuronal differentiation score (ReNCell VM [1]; library: Prestwick) is on record?
The neuronal differentiation score was active: 3.

What about the “dopaminergic neuron differentiation score” value (ReNCell VM [2]; library: Prestwick) of the same compound?
Its value is inactive: 0.

Which neuronal differentiation score (ReNCell VM [1]; library: Spectrum) does the source give for Cc1nccnc1N1CCCCC1 here?
Its neuronal differentiation score is inactive: 0.

And the “dopaminergic neuron differentiation score” value (ReNCell VM [2]; library: Spectrum)?
The value was inactive: 0.

Which neuronal differentiation score (ReNCell VM [1]; library: Phytochemical) does the source give for CC(C)=CCCC1(C)C=Cc2c(c(C)cc3c2[nH]c2ccccc23)O1 (stereo unspecified) [Mahanimbine] here?
The neuronal differentiation score was inactive: 0.

What about the “dopaminergic neuron differentiation score” value (ReNCell VM [2]; library: Phytochemical) of the same compound?
The value was inactive: 0.

CC(=O)OCC(=O)[C@@]1(O)CC[C@H]2[C@@H]3CCC4=CC(=O)CC[C@]4(C)[C@H]3[C@@H](O)C[C@@]21C was tested. Which neuronal differentiation score (ReNCell VM [1]; library: Spectrum) did it give?
Its neuronal differentiation score is inactive: 1.

And the “dopaminergic neuron differentiation score” value (ReNCell VM [2]; library: Spectrum)?
The value was inactive: 0.

With CN(N=O)C(=O)N[C@@H](C=O)[C@@H](O)[C@H](O)[C@H](O)CO [Streptozotocin] as the compound, how does the neuronal differentiation score (ReNCell VM [1]; library: Prestwick) read?
Its neuronal differentiation score is inactive: 0.

What about the “dopaminergic neuron differentiation score” value (ReNCell VM [2]; library: Prestwick) of the same compound?
Its value is inactive: 0.

For CN(C)CCC=C1c2ccccc2CCc2ccccc21 [Amitriptyline hydrochloride], which neuronal differentiation score (ReNCell VM [1]; library: LOPAC) is on record?
Its neuronal differentiation score is inactive: 0.

What about the “dopaminergic neuron differentiation score” value (ReNCell VM [2]; library: LOPAC) of the same compound?
The value was inactive: 0.

Which results are given for CN(C)CCOC(=O)COc1ccc(Cl)cc1?
neuronal differentiation score (ReNCell VM [1]; library: Spectrum): inactive: 0; dopaminergic neuron differentiation score (ReNCell VM [2]; library: Spectrum): inactive: 0

CNc1cc(OC)c(C(=O)NC2CCN(Cc3ccccc3)C2C)cc1Cl (stereo unspecified) [Nemonapride] was tested. Which neuronal differentiation score (ReNCell VM [1]; library: Tocriscreen) did it give?
Its neuronal differentiation score is inactive: 0.

And the “dopaminergic neuron differentiation score” value (ReNCell VM [2]; library: Tocriscreen)?
Its value is inactive: 0.

How did the neuronal differentiation score (ReNCell VM [1]; library: Prestwick) turn out when CCCOc1cc(N)ccc1C(=O)OCCN(CC)CC [Propoxycaine hydrochloride] was run?
Its neuronal differentiation score is inactive: 0.

And the “dopaminergic neuron differentiation score” value (ReNCell VM [2]; library: Prestwick)?
The value was inactive: 1.

How did the neuronal differentiation score (ReNCell VM [1]; library: Natural) turn out when O=C1N[C@@H](Cc2c[nH]c3ccccc23)C(=O)N[C@H]1Cc1c[nH]c2ccccc12 [cyclo(tryptophyltryptophyl)] was run?
The neuronal differentiation score was inactive: 0.

What about the “dopaminergic neuron differentiation score” value (ReNCell VM [2]; library: Natural) of the same compound?
The value was inactive: 0.

With O=C(c1ccc(F)cc1)C1CCN(CCn2c(=O)[nH]c3ccccc3c2=O)CC1 as the compound, how does the neuronal differentiation score (ReNCell VM [1]; library: Spectrum) read?
The neuronal differentiation score was inactive: 0.

And the “dopaminergic neuron differentiation score” value (ReNCell VM [2]; library: Spectrum)?
The value was inactive: 0.

What does the source list for COC(=O)C1=C(C)NC(C)=C(C(=O)OC(C)(C)CN(C)CCC(c2ccccc2)c2ccccc2)C1c1cccc([N+](=O)[O-])c1 (stereo unspecified) [Lercanidipine hydrochloride hemihydrate]?
neuronal differentiation score (ReNCell VM [1]; library: LOPAC): inactive: 0; dopaminergic neuron differentiation score (ReNCell VM [2]; library: LOPAC): inactive: 0

Which results are given for CCCn1c(=O)c2[nH]c(-c3ccc(OCC(=O)NCCN)cc3)nc2n(CCC)c1=O [Xanthine amine congener]?
neuronal differentiation score (ReNCell VM [1]; library: LOPAC): inactive: 0; dopaminergic neuron differentiation score (ReNCell VM [2]; library: LOPAC): inactive: 0

For OCc1cc(C(O)CNCCCCCCOCCCCc2ccccc2)ccc1O (stereo unspecified) [Salmeterol xinafoate], which neuronal differentiation score (ReNCell VM [1]; library: LOPAC) is on record?
Its neuronal differentiation score is inactive: 0.

What about the “dopaminergic neuron differentiation score” value (ReNCell VM [2]; library: LOPAC) of the same compound?
The value was inactive: 0.

With CC(=O)Nc1ccc(S(=O)(=O)Nc2ccc([N+](=O)[O-])cc2)cc1 as the compound, how does the neuronal differentiation score (ReNCell VM [1]; library: Spectrum) read?
The neuronal differentiation score was inactive: 0.

What about the “dopaminergic neuron differentiation score” value (ReNCell VM [2]; library: Spectrum) of the same compound?
Its value is inactive: 0.

What does the source list for NC/C=C/C(=O)O [(E)-4-amino-2-butenoic acid]?
neuronal differentiation score (ReNCell VM [1]; library: LOPAC): inactive: 0; dopaminergic neuron differentiation score (ReNCell VM [2]; library: LOPAC): inactive: 0

Which neuronal differentiation score (ReNCell VM [1]; library: Spectrum) does the source give for CNCCCC12CCC(c3ccccc31)c1ccccc12 here?
Its neuronal differentiation score is inactive: 0.

What about the “dopaminergic neuron differentiation score” value (ReNCell VM [2]; library: Spectrum) of the same compound?
The value was inactive: 0.

For CC1(C)C(=O)N(CCN2CCC(C(=O)c3ccc(F)cc3)CC2)c2ccccc21 [LY-310,762 hydrochloride], which neuronal differentiation score (ReNCell VM [1]; library: LOPAC) is on record?
Its neuronal differentiation score is inactive: 0.

What about the “dopaminergic neuron differentiation score” value (ReNCell VM [2]; library: LOPAC) of the same compound?
Its value is inactive: 0.

For NS(=O)(=O)c1cc(C(=O)O)c(NCc2ccco2)cc1Cl, which neuronal differentiation score (ReNCell VM [1]; library: Spectrum) is on record?
The neuronal differentiation score was inactive: 0.

What about the “dopaminergic neuron differentiation score” value (ReNCell VM [2]; library: Spectrum) of the same compound?
Its value is inactive: 0.

Cc1ccc(-c2cc(C(F)(F)F)nn2-c2ccc(S(N)(=O)=O)cc2)cc1 [Celecoxib] was tested. Which neuronal differentiation score (ReNCell VM [1]; library: Prestwick) did it give?
Its neuronal differentiation score is inactive: 0.

What about the “dopaminergic neuron differentiation score” value (ReNCell VM [2]; library: Prestwick) of the same compound?
The value was inactive: 0.

What does the source list for COC(=O)Nc1nc2ccc(SC(C)C)cc2[nH]1 [Methiazole]?
neuronal differentiation score (ReNCell VM [1]; library: Prestwick): inactive: 0; dopaminergic neuron differentiation score (ReNCell VM [2]; library: Prestwick): inactive: 0
